Results deposited as PubChem BioAssay AID1259308 (NCATS, 2017).

- Purpose: 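Genes whose loss raises luciferase production in HEK293 cells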 (primary screen)
- System: human HEK293 embryonic kidney cells stably expressing firefly luciferase (HEK-CMV-Luc2-Hygro)
- Reagent: single siRNA against human genes, 0.8 pmol siRNA per well
- Duration: 72 h
- Measured: 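Luciferase light (ONE-Glo) measured on one replicate plate set and viability (CellTiter-Glo) on the other, scaled to a negative control siRNA, with robust z-scores and luciferase per cell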
- Reading the numbers: total luciferase, z-score and total luciferase, % of control: higher = more reporter protein produced
- Rule for the call: 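An siRNA counts as active if its total luciferase robust z-score exceeds 3; genes with two or more such siRNAs out of three were retested with fresh siRNAs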
- Meaning of the calls: active = raised luciferase; inactive = no rise
This is an unselected part of about 59,000 reagents. In the full data, about 1,510 (2.6%) are marked active. 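Calls use total luciferase alone and ignore viability, so some active siRNAs may act by altering cell number.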 The numbers tell different reagents against one gene apart. Further read-outs or replicates are left out here.

With knock-down of MYO3B (myosin IIIB) #1, the record shows total luciferase, z-score -0.354; total luciferase, % of control 74.9; inactive. Depletion of MYO3B (myosin IIIB) #2 came out at: total luciferase, z-score 2; total luciferase, % of control 122; inactive. Depletion of MYO3B (myosin IIIB) #3 came out at: total luciferase, z-score 1.41; total luciferase, % of control 110; inactive. OPN5 (opsin 5) #1 gave total luciferase, z-score -0.998; total luciferase, % of control 62; inactive. With knock-down of OPN5 (opsin 5) #2, the screen gave total luciferase, z-score -0.54; total luciferase, % of control 71.1; inactive. For OPN5 (opsin 5) #3 the deposit lists total luciferase, z-score -1.43; total luciferase, % of control 53.5; inactive.

NELFE (negative elongation factor complex member E) #1 scored total luciferase, z-score 4.05; total luciferase, % of control 162; active. With knock-down of NELFE (negative elongation factor complex member E) #2 the results were total luciferase, z-score 1.18; total luciferase, % of control 105; inactive. NELFE (negative elongation factor complex member E) #3 scored total luciferase, z-score 4.85; total luciferase, % of control 178; active. MLST8 (MTOR associated protein MLST8) #1 scored total luciferase, z-score -0.423; total luciferase, % of control 73.5; inactive. With knock-down of MLST8 (MTOR associated protein MLST8) #2, the record shows total luciferase, z-score -0.264; total luciferase, % of control 76.6; inactive. With knock-down of MLST8 (MTOR associated protein MLST8) #3, the screen gave total luciferase, z-score -1.45; total luciferase, % of control 53; inactive.

For LOC107985384 #1, the entry reads total luciferase, z-score 4.35; total luciferase, % of control 168; active. For LOC107985384 #2, the values are total luciferase, z-score -0.849; total luciferase, % of control 65; inactive. With knock-down of LOC107985384 #3, the screen gave total luciferase, z-score 0.33; total luciferase, % of control 88.5; inactive. ZDHHC8 (zDHHC palmitoyltransferase 8) #1 gave total luciferase, z-score -0.639; total luciferase, % of control 69.2; inactive. ZDHHC8 (zDHHC palmitoyltransferase 8) #2 showed total luciferase, z-score 0.379; total luciferase, % of control 89.4; inactive. With knock-down of ZDHHC8 (zDHHC palmitoyltransferase 8) #3, the record shows total luciferase, z-score 1.31; total luciferase, % of control 108; inactive.

TAS2R4 (taste 2 receptor member 4) #1 scored total luciferase, z-score -0.874; total luciferase, % of control 64.5; inactive. TAS2R4 (taste 2 receptor member 4) #2 scored total luciferase, z-score 1.57; total luciferase, % of control 113; inactive. TAS2R4 (taste 2 receptor member 4) #3 gave total luciferase, z-score 3.1; total luciferase, % of control 144; active. ATP6V1G1 (ATPase H+ transporting V1 subunit G1) #1 showed total luciferase, z-score -0.577; total luciferase, % of control 70.4; inactive. After knock-down of ATP6V1G1 (ATPase H+ transporting V1 subunit G1) #2 the results were total luciferase, z-score 1.89; total luciferase, % of control 119; inactive. Against ATP6V1G1 (ATPase H+ transporting V1 subunit G1) #3, the entry reads total luciferase, z-score 0.192; total luciferase, % of control 85.7; inactive.

Depletion of TMEM253 (transmembrane protein 253) #1 gave: total luciferase, z-score 0.0985; total luciferase, % of control 83.8; inactive. Knock-down of TMEM253 (transmembrane protein 253) #2 came out at: total luciferase, z-score 0.407; total luciferase, % of control 90; inactive. Knock-down of TMEM253 (transmembrane protein 253) #3 gave: total luciferase, z-score 0.433; total luciferase, % of control 90.5; inactive. Silencing of HOOK2 (hook microtubule tethering protein 2) #1 resulted in: total luciferase, z-score 3; total luciferase, % of control 142; active. Depletion of HOOK2 (hook microtubule tethering protein 2) #2 gave: total luciferase, z-score 0.8; total luciferase, % of control 97.8; inactive. Silencing of HOOK2 (hook microtubule tethering protein 2) #3 gave: total luciferase, z-score 0.192; total luciferase, % of control 85.7; inactive.

EPM2A (EPM2A glucan phosphatase, laforin) #1 gave total luciferase, z-score -1.08; total luciferase, % of control 60.5; inactive. Depletion of EPM2A (EPM2A glucan phosphatase, laforin) #2 gave: total luciferase, z-score -0.249; total luciferase, % of control 76.9; inactive. With knock-down of EPM2A (EPM2A glucan phosphatase, laforin) #3, the record shows total luciferase, z-score -0.24; total luciferase, % of control 77.1; inactive. Against SETD2 (SET domain containing 2, histone lysine methyltransferase) #1, the values are total luciferase, z-score -0.658; total luciferase, % of control 68.8; inactive. Knock-down of SETD2 (SET domain containing 2, histone lysine methyltransferase) #2 came out at: total luciferase, z-score 0.607; total luciferase, % of control 94; inactive. Against SETD2 (SET domain containing 2, histone lysine methyltransferase) #3, the values are total luciferase, z-score 0.187; total luciferase, % of control 85.6; inactive.

Knock-down of SCLT1 (sodium channel and clathrin linker 1) #1 came out at: total luciferase, z-score -0.355; total luciferase, % of control 74.8; inactive. With knock-down of SCLT1 (sodium channel and clathrin linker 1) #2 the results were total luciferase, z-score -0.438; total luciferase, % of control 73.2; inactive. Silencing of SCLT1 (sodium channel and clathrin linker 1) #3 resulted in: total luciferase, z-score -1.12; total luciferase, % of control 59.7; inactive. After knock-down of PRKAB2 (protein kinase AMP-activated non-catalytic subunit beta 2) #1, the record shows total luciferase, z-score 0.125; total luciferase, % of control 84.4; inactive. Depletion of PRKAB2 (protein kinase AMP-activated non-catalytic subunit beta 2) #2 came out at: total luciferase, z-score 0.823; total luciferase, % of control 98.3; inactive. PRKAB2 (protein kinase AMP-activated non-catalytic subunit beta 2) #3 showed total luciferase, z-score 1.48; total luciferase, % of control 111; inactive.

Targets listed so far whose target name starts with P or p (3):
PRKAB2 (protein kinase AMP-activated non-catalytic subunit beta 2) #1 → total luciferase, z-score: 0.125; total luciferase, % of control: 84.4; Call: inactive
PRKAB2 (protein kinase AMP-activated non-catalytic subunit beta 2) #2 → total luciferase, z-score: 0.823; total luciferase, % of control: 98.3; Call: inactive
PRKAB2 (protein kinase AMP-activated non-catalytic subunit beta 2) #3 → total luciferase, z-score: 1.48; total luciferase, % of control: 111; Call: inactive
